Measured values from the supplement of paper PMC10849652.
Some of the results follow.

Sequences of proteins named here, by UniProt entry; tags and fusion partners are left off. A change or cut given only in a name is not applied to a line headed by its entry.
UniProt Q8TBC4: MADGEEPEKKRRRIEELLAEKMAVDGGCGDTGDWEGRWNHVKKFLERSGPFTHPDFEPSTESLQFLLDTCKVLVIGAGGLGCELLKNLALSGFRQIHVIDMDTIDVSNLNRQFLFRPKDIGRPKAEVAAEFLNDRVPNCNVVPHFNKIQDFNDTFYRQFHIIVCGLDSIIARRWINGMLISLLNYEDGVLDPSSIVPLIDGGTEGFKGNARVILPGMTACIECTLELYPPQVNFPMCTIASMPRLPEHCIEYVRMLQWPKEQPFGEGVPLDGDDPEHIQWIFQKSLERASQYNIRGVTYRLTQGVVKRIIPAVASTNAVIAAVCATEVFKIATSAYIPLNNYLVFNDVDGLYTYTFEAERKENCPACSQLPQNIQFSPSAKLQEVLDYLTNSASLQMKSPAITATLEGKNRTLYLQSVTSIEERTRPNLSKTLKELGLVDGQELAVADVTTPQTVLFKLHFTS
UniProt Q9H4B7, whole entry, looked up: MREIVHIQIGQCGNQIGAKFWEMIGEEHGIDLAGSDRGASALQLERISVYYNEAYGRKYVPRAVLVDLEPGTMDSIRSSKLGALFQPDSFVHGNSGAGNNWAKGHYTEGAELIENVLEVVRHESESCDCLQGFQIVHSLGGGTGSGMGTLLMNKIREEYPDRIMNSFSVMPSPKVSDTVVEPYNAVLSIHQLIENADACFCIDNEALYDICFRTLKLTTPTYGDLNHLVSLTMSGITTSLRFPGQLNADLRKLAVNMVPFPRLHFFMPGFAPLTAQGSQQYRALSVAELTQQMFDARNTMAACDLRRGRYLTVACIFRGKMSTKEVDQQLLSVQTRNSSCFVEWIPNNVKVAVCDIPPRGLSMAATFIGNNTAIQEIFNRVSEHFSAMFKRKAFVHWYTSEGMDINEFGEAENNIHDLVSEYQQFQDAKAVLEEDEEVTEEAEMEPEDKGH
UniProt Q99614: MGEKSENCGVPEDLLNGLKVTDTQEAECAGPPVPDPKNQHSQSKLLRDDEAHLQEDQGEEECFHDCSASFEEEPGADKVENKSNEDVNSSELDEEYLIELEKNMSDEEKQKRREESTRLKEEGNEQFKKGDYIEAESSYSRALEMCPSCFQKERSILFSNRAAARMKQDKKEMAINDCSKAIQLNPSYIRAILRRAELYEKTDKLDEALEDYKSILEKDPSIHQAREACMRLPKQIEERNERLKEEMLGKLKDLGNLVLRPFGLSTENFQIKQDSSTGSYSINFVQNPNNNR
UniProt P61086: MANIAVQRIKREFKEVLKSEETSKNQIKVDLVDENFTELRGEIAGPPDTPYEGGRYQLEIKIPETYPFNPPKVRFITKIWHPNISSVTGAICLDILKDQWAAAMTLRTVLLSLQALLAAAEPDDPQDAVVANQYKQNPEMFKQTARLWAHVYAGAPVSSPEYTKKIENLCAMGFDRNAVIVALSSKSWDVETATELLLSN
UniProt Q7Z7E8: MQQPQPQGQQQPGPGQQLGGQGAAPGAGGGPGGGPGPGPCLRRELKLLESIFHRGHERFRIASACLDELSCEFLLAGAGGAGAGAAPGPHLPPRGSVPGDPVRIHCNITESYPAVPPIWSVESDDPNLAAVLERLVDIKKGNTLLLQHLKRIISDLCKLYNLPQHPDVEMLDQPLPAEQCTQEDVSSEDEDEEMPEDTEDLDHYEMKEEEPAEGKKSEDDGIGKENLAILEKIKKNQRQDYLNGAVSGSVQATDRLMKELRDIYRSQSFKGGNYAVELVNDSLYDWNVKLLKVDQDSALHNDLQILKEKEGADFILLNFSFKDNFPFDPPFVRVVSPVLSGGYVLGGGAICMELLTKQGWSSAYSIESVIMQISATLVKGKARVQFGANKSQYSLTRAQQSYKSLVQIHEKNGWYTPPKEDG
UniProt P10599: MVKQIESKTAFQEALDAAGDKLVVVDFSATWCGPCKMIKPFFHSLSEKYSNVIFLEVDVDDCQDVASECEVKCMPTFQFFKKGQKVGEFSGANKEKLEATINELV
UniProt Q16222: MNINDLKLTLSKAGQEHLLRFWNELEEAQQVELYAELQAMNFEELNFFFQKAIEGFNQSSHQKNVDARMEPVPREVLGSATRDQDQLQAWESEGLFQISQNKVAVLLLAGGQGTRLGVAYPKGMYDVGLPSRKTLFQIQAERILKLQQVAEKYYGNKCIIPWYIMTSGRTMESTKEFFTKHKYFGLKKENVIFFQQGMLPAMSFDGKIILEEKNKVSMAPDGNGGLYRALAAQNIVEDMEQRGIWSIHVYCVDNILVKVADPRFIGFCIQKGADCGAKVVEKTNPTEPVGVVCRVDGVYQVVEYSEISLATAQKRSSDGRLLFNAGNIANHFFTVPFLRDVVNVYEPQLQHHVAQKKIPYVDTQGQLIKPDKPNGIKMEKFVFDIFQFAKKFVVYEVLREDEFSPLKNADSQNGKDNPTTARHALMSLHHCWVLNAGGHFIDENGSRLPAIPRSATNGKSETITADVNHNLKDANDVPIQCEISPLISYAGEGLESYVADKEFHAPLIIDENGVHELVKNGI
UniProt Q5R3I4: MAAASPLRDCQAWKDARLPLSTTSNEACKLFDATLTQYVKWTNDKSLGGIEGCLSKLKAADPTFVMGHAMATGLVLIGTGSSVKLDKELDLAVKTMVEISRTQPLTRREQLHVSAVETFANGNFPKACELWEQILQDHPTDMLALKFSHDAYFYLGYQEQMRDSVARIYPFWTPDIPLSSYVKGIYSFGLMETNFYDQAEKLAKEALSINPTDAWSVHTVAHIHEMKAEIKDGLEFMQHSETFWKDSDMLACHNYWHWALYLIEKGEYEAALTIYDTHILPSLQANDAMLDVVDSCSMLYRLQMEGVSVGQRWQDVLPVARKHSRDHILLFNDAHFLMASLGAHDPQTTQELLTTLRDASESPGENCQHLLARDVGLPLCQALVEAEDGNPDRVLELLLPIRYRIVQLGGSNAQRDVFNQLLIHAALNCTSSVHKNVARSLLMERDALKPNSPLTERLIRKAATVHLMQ
UniProt P68036, whole entry, looked up: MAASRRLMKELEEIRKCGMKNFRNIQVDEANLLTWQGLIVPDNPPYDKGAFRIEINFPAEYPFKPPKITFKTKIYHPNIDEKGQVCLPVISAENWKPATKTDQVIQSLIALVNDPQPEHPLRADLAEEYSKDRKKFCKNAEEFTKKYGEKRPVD
UniProt Q9GZZ9, whole entry, looked up: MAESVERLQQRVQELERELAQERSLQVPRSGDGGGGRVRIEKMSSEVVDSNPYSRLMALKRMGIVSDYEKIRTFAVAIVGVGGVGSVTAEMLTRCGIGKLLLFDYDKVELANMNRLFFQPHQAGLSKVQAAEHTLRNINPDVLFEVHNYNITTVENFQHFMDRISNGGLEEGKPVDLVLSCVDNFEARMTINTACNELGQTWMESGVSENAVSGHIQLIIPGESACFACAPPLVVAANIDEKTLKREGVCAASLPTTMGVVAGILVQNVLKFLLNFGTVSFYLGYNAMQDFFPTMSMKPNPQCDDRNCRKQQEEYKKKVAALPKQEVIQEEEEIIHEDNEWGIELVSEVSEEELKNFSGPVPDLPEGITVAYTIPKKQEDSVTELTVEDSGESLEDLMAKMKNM
UniProt Q9H3M7: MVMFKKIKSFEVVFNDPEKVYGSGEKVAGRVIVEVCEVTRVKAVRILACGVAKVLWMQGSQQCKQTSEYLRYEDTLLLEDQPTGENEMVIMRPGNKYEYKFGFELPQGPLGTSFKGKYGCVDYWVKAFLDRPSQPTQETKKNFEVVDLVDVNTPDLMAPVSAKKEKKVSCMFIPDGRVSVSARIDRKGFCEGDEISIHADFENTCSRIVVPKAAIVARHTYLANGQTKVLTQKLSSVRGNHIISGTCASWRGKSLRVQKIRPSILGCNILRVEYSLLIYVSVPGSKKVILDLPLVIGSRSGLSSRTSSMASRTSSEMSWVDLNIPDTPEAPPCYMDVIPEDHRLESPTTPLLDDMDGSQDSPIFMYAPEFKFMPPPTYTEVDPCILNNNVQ
UniProt Q8NBS9: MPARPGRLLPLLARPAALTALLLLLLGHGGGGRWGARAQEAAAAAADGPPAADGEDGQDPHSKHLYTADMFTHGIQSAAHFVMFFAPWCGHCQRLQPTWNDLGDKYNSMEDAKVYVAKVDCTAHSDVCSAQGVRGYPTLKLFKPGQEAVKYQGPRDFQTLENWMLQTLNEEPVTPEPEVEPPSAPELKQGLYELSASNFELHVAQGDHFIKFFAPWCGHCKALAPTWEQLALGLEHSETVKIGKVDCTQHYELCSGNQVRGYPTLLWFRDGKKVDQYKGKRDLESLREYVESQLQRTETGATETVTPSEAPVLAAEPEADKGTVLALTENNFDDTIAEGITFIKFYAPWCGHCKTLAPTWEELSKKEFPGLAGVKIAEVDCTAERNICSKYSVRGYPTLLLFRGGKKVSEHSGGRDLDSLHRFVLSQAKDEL
UniProt Q6IPR3: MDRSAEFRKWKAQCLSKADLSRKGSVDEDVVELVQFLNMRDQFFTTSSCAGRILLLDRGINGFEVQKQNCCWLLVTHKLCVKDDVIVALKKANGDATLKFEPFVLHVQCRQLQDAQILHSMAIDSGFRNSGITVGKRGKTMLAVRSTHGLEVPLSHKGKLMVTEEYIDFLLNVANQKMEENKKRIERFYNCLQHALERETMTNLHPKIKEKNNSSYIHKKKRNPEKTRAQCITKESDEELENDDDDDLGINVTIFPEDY
UniProt Q9C0C9: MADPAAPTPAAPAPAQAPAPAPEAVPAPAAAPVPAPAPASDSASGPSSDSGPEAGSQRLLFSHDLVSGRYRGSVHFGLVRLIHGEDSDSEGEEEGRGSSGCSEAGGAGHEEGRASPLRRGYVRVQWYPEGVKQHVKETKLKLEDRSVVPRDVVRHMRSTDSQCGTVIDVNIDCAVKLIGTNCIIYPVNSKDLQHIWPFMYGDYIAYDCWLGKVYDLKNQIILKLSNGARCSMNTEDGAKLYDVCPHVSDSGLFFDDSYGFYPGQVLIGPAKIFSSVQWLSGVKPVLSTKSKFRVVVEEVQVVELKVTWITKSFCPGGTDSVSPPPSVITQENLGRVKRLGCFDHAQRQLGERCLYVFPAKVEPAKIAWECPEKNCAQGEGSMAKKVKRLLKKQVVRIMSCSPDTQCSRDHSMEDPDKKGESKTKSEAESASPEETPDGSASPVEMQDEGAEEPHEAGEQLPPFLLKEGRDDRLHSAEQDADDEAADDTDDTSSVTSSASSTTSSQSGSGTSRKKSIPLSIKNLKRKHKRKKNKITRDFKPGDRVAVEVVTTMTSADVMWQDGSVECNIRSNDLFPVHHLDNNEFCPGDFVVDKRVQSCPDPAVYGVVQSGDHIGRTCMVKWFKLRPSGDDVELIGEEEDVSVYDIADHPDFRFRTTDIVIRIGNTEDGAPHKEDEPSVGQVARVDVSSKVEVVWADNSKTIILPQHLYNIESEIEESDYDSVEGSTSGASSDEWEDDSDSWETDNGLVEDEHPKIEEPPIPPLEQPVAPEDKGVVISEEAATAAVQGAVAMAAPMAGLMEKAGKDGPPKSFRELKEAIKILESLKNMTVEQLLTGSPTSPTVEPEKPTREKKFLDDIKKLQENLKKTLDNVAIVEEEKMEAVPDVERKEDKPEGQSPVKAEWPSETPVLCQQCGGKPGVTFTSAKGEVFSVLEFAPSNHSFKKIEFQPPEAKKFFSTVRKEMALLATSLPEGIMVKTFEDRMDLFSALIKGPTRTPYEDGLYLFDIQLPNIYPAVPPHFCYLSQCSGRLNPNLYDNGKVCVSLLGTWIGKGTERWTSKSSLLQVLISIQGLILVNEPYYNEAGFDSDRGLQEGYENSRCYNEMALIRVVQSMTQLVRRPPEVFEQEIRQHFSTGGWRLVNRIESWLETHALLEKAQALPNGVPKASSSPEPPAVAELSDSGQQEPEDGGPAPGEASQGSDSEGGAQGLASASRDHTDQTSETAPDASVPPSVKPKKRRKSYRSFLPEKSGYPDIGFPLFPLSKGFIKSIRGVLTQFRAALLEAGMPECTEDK
UniProt P30536, whole entry, looked up: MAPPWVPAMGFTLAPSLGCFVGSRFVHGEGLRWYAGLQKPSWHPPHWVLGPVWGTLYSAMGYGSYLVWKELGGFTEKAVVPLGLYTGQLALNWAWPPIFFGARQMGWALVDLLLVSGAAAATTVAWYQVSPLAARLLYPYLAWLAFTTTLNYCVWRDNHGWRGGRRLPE
UniProt O14530: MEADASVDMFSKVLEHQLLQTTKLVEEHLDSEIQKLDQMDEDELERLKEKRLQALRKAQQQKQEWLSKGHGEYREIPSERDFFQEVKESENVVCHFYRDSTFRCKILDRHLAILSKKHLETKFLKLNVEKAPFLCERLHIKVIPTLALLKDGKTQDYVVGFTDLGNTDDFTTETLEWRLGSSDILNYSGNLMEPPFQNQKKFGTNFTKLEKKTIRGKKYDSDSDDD

Assays:
Test in all cases: log2 fold change, soluble protein after heating vs DMSO (PISA); higher = thermal stabilisation; K562 cells, 10 uM, 30 min; active = over 0.2 and 3.5 SD of the protein, either way, in both replicates (recomputed)
bafetinib = compound: Cc1ccc(NC(=O)c2ccc(CN3CC[C@H](N(C)C)C3)c(C(F)(F)F)c2)cc1Nc1nccc(-c2cncnc2)n1 [bafetinib]
In short: (§1)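 Soluble protein was defined as the supernatant after 21,000xg for 90 min. It came from K562 cells at 2×10^6 cells/mL given 10 μM compound for 30 min, heated in aliquots for 3 min across 48°C-58°C, pooled, and extracted in PBS with 0.5% NP-40 at 4°C, and was quantified by TMTpro 16plex LC-MS/MS with equalised channel sums. Thermal stability against control samples, from duplicates, is reported as log2 fold change.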

[1] = compound: Cc1cccc(CC(=O)N2CCc3c2ccc(-c2cn(C)c4ncnc(N)c24)c3F)n1
In short: as §1

nilotinib = compound: Cc1cn(-c2cc(NC(=O)c3ccc(C)c(Nc4nccc(-c5cccnc5)n4)c3)cc(C(F)(F)F)c2)cn1 [nilotinib]
In short: as §1

[2] = compound: Cc1nc(Nc2n[nH]c3c2CN(C(=O)N[C@H](CN(C)C)c2ccccc2)C3(C)C)c2sccc2n1
In short: as §1

dasatinib = compound: Cc1nc(Nc2ncc(C(=O)Nc3c(C)cccc3Cl)s2)cc(N2CCN(CCO)CC2)n1 [dasatinib]
In short: as §1

[3] = compound: Cc1ncc(-c2ccnc(Nc3ccc(S(C)(=O)=O)cc3)n2)n1C(C)C
In short: as §1

[4] = compound: Cn1cc(-c2ccc3c(c2)CCN3C(=O)Cc2cccc(C(F)(F)F)c2)c2c(N)ncnc21
In short: as §1

[5] = compound: Cn1cc(-c2ccc3nnc(C(F)(F)c4ccc5ncccc5c4)n3n2)cn1
In short: as §1

tipifarnib = compound: Cn1cncc1[C@@](N)(c1ccc(Cl)cc1)c1ccc2c(c1)c(-c1cccc(Cl)c1)cc(=O)n2C [tipifarnib]
In short: as §1

mubritinib = compound: FC(F)(F)c1ccc(/C=C/c2nc(COc3ccc(CCCCn4ccnn4)cc3)co2)cc1 [mubritinib]
In short: as §1

[6] = compound: NC(=O)Nc1cc(-c2cccc(F)c2)sc1C(=O)N[C@H]1CCCNC1
In short: as §1

[7] = compound: NC(=O)c1cnc(N[C@@H]2CCCC[C@@H]2N)nc1Nc1cccc(-n2nccn2)c1
In short: as §1

[8] = compound: NC1(c2ccc(-c3nc4ccn5c(=O)[nH]nc5c4cc3-c3ccccc3)cc2)CCC1
In short: as §1

[9] = compound: NCC(=O)Nc1ccc(-n2nc(C(F)(F)F)cc2-c2ccc3c(ccc4ccccc43)c2)cc1
In short: as §1

entinostat = compound: Nc1ccccc1NC(=O)c1ccc(CNC(=O)OCc2cccnc2)cc1 [entinostat]
In short: as §1

vorinostat = compound: O=C(CCCCCCC(=O)Nc1ccccc1)NO [vorinostat]
In short: as §1

citarinostat = compound: O=C(CCCCCCNC(=O)c1cnc(N(c2ccccc2)c2ccccc2Cl)nc1)NO [citarinostat]
In short: as §1

silmitasertib = compound: O=C(O)c1ccc2c(c1)nc(Nc1cccc(Cl)c1)c1ccncc12 [silmitasertib]
In short: as §1

[10] = compound: O=C1NC(=O)C(c2cnc3ccccn23)=C1c1cn2c3c(cc(F)cc13)CN(C(=O)N1CCCCC1)CC2
In short: as §1

[11] = compound: c1cc(OCCN2CCCCC2)cc(-c2n[nH]c3ccc(-c4nnc[nH]4)cc23)c1
In short: as §1

Measured: log2 fold change

UBA3 (UniProt Q8TBC4)
inactive: bafetinib 0.011 | [1] 0.046 | nilotinib -0.047 | [2] -0.024 | dasatinib -0.154 | [3] -0.021 | [4] 0.089 | [5] 0.041 | tipifarnib -0.122 | mubritinib 0.207 | [6] -0.035 | [7] -0.037 | [8] -0.171 | [9] -0.002 | entinostat 0.081 | vorinostat 0.121 | citarinostat 0.084 | silmitasertib -0.039 | [10] -0.093 | [11] 0.029

TUBB1 (UniProt Q9H4B7)
inactive: bafetinib 0.064 | [1] 0.025 | nilotinib 0.086 | [2] -0.025 | dasatinib -0.059 | [3] 0.02 | [4] 0.103 | [5] 0.019 | tipifarnib -0.041 | mubritinib 0.001 | [6] 0.005 | [7] 0.092 | [8] -0.007 | [9] 0.089 | entinostat -0.015 | vorinostat 0.03 | citarinostat 0.008 | silmitasertib -0.102 | [10] -0.011 | [11] -0.037

TTC1 (UniProt Q99614)
inactive: bafetinib -0.066 | [1] -0.038 | nilotinib 0.03 | [2] 0.007 | dasatinib 0.003 | [3] -0.022 | [4] 0.006 | [5] 0.02 | tipifarnib 0.022 | mubritinib 0.012 | [6] -0.036 | [7] -0.026 | [8] 0.037 | [9] 0.037 | entinostat -0.066 | vorinostat -0.047 | citarinostat -0.031 | silmitasertib 0.008 | [10] -0.073 | [11] 0.015

UBE2K (UniProt P61086)
inactive: bafetinib 0.057 | [1] -0.015 | nilotinib 0.006 | [2] -0.055 | dasatinib -0.011 | [3] -0.01 | [4] 0.02 | [5] -0.04 | tipifarnib -0.064 | mubritinib 0.038 | [6] -0.007 | [7] 0.034 | [8] -0.03 | [9] 0.001 | entinostat -0.006 | vorinostat 0.007 | citarinostat 0.076 | silmitasertib 0.01 | [10] 0.017 | [11] 0.001

UBE2Q1 (UniProt Q7Z7E8)
inactive: bafetinib -0.029 | [1] 0.015 | nilotinib -0.134 | [2] -0.103 | dasatinib -0.101 | [3] -0.046 | [4] -0.012 | [5] 0.027 | tipifarnib -0.103 | mubritinib 0.006 | [6] -0.01 | [7] -0.059 | [8] -0.084 | [9] -0.012 | entinostat 0.03 | vorinostat 0.084 | citarinostat 0.029 | silmitasertib 0.074 | [10] -0.035 | [11] -0.035

TXN (UniProt P10599)
inactive: bafetinib -0.034 | [1] 0 | nilotinib 0.033 | [2] -0.018 | dasatinib 0.035 | [3] 0.015 | [4] -0.034 | [5] 0.003 | tipifarnib 0.07 | mubritinib 0.022 | [6] -0.022 | [7] 0.008 | [8] 0.03 | [9] 0.057 | entinostat -0.021 | vorinostat -0.052 | citarinostat -0.013 | silmitasertib -0.022 | [10] 0.003 | [11] 0.038

UAP1 (UniProt Q16222)
inactive: bafetinib 0.01 | [1] -0.008 | nilotinib -0.019 | [2] 0.017 | dasatinib -0.018 | [3] -0.006 | [4] 0.07 | [5] -0.012 | tipifarnib -0.063 | mubritinib 0.005 | [6] -0.043 | [7] -0.002 | [8] -0.035 | [9] -0.003 | entinostat -0.016 | vorinostat 0.034 | citarinostat 0.001 | silmitasertib -0.079 | [10] -0.024 | [11] -0.01

TTC38 (UniProt Q5R3I4)
inactive: bafetinib -0.012 | [1] 0.021 | nilotinib 0.038 | [2] 0.034 | dasatinib 0.024 | [3] -0.04 | [4] 0.071 | [5] -0.021 | tipifarnib 0.05 | mubritinib 0.322 | [6] 0.038 | [7] 0.113 | [8] -0.263 | [9] -0.09 | entinostat 0.111 | citarinostat -0.243 | silmitasertib -0.156 | [10] 0.042 | [11] 0.313
active: vorinostat 0.459

UBE2L3 isoform 3 (UniProt P68036)
inactive: bafetinib -0.047 | [1] 0.011 | nilotinib 0.021 | [2] -0.037 | dasatinib 0.061 | [3] -0.005 | [4] 0.025 | [5] 0.033 | tipifarnib 0.028 | mubritinib 0.03 | [6] -0.033 | [7] 0.013 | [8] 0.004 | [9] 0.018 | entinostat 0 | vorinostat 0.002 | citarinostat 0.012 | silmitasertib -0.043 | [10] -0.038 | [11] 0.001

UBA5 (UniProt Q9GZZ9)
inactive: bafetinib -0.048 | [1] 0.013 | nilotinib 0.012 | [2] 0.011 | dasatinib -0.022 | [3] 0.005 | [4] 0.059 | [5] 0.014 | tipifarnib -0.127 | mubritinib 0.016 | [6] -0.013 | [7] -0.078 | [8] -0.092 | [9] -0.009 | entinostat -0.01 | vorinostat -0.025 | citarinostat 0.004 | silmitasertib -0.043 | [10] 0.012 | [11] -0.074

TXNIP (UniProt Q9H3M7)
inactive: bafetinib 0.03 | [1] -0.072 | nilotinib 0.018 | [2] 0.185 | dasatinib 0.005 | [3] -0.264 | [4] 0.105 | [5] -0.105 | tipifarnib 0.199 | mubritinib -0.264 | [6] 0.091 | [7] -0.024 | [8] 0.19 | [9] 0.007 | entinostat -0.009 | vorinostat 0.018 | citarinostat 0.071 | silmitasertib 0.115 | [10] -0.079 | [11] 0.005

Retrieved one by one from the entries so far (2):
TXNIP (UniProt Q9H3M7)
inactive: bafetinib 0.03 | [1] -0.072 | nilotinib 0.018 | [2] 0.185 | dasatinib 0.005 | [3] -0.264 | [4] 0.105 | [5] -0.105 | tipifarnib 0.199 | mubritinib -0.264 | [6] 0.091 | [7] -0.024 | [8] 0.19 | [9] 0.007 | entinostat -0.009 | vorinostat 0.018 | citarinostat 0.071 | silmitasertib 0.115 | [10] -0.079 | [11] 0.005

TTC38 (UniProt Q5R3I4)
inactive: bafetinib -0.012 | [1] 0.021 | nilotinib 0.038 | [2] 0.034 | dasatinib 0.024 | [3] -0.04 | [4] 0.071 | [5] -0.021 | tipifarnib 0.05 | mubritinib 0.322 | [6] 0.038 | [7] 0.113 | [8] -0.263 | [9] -0.09 | entinostat 0.111 | citarinostat -0.243 | silmitasertib -0.156 | [10] 0.042 | [11] 0.313
active: vorinostat 0.459

Next part.

TXNDC5 (UniProt Q8NBS9)
inactive: bafetinib -0.035 | [1] -0.041 | nilotinib -0.02 | [2] 0.013 | dasatinib 0.025 | [3] -0.012 | [4] -0.014 | [5] 0 | tipifarnib 0.058 | mubritinib -0.005 | [6] -0.006 | [7] 0.042 | [8] 0.011 | [9] 0.05 | entinostat 0.002 | vorinostat -0.054 | citarinostat 0.016 | silmitasertib 0.006 | [10] -0.039 | [11] 0.041

TYW3 (UniProt Q6IPR3)
inactive: bafetinib 0.114 | [1] 0.035 | nilotinib -0.004 | [2] 0.051 | dasatinib 0.015 | [3] 0.009 | [4] -0.037 | [5] -0.051 | tipifarnib 0.031 | mubritinib 0.029 | [6] 0.008 | [7] 0.05 | [8] 0.073 | [9] 0.082 | entinostat -0.023 | vorinostat 0.01 | citarinostat -0.002 | silmitasertib -0.079 | [10] -0.06 | [11] -0.087

UBE2O (UniProt Q9C0C9)
inactive: bafetinib 0.009 | [1] 0.014 | nilotinib -0.015 | [2] 0.002 | dasatinib -0.05 | [3] -0.031 | [4] 0.078 | [5] 0.031 | tipifarnib -0.045 | mubritinib 0.109 | [6] 0.028 | [7] -0.07 | [8] -0.05 | [9] -0.007 | entinostat -0.012 | vorinostat 0.024 | citarinostat 0.084 | silmitasertib -0.014 | [10] -0.029 | [11] 0.036

TSPO (UniProt P30536)
inactive: bafetinib -0.038 | [1] -0.075 | nilotinib -0.02 | [2] -0.01 | dasatinib -0.008 | [3] -0.012 | [4] 0.045 | [5] 0.068 | tipifarnib 0.083 | mubritinib 0.003 | [6] -0.035 | [7] -0.091 | [8] -0.102 | [9] -0.023 | entinostat 0.026 | vorinostat -0.026 | citarinostat 0.041 | silmitasertib 0.025 | [10] -0.008 | [11] -0.095

TXNDC9 (UniProt O14530)
inactive: bafetinib 0.04 | [1] 0.042 | nilotinib 0.033 | [2] 0.007 | dasatinib 0.007 | [3] -0.051 | [4] 0.029 | [5] 0 | tipifarnib 0.035 | mubritinib 0.043 | [6] 0.005 | [7] -0.017 | [8] -0.128 | [9] -0.024 | entinostat 0.003 | vorinostat -0.003 | citarinostat 0.03 | silmitasertib -0.033 | [10] -0.022 | [11] -0.009
